Data as given in PubChem BioAssay AID504793 (Drosophila RNAi Screening Center, 2011)

Aim: 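Knock-downs allowing continued mitosis even though DNA is damaged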 (primary screen)
Cells: Drosophila S2R+ cells
Reagent: long dsRNA against Drosophila genes, about 0.25 µg dsRNA per well
Time to read-out: 4 days of dsRNA, then 4 hours of drug before read-out
Conditions: doxorubicin 0.5 µM for 4 hours to cause double-strand breaks, in cells also given a low, harmless dose of dsRNA against nbs to sensitise the assay
Measured: 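Mitotic index as the number of phospho-histone H3-positive cells in each well following doxorubicin, given as raw counts without normalisation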
Direction: mitotic cells: higher = more cells in mitosis, weaker G2 arrest
Active means: 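a call needs confirmation in secondary tests, with other dsRNAs and a check of mitotic timing without damage, not just a high primary count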
Meaning of the calls: active = confirmed in follow-up tests; inactive = not confirmed
The screen tested about 23,000 reagents; this is a random part of those with a known target gene and a result. In the full data, 62 (0.27%) got an active call. 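Calls come from follow-up tests whose scores are not deposited, so confirmed genes may have low counts here; counts are not normalised per plate.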 The raw values are shown without normalisation. A number with no mark means an inactive call. Names joined by + are all predicted targets of the reagent. No sequences are given here.

no.	gene knocked down	DRSC id	mitotic cells, replicate 1
1	Syx5	DRSC03432	11
2	CG43339 + CG43338	DRSC02466	6
3	BomS5	DRSC22306	12
4	Nup154	DRSC03384	5
5	Nup154	DRSC26396	6
6	JYalpha (retired record) + JYalpha	DRSC21700	7
7	CG30158	DRSC04956	3
8	CG30158	DRSC04974	3
9	CG30158	DRSC04975	7
10	CG30158	DRSC05012	7
11	CG16781	DRSC18117	10
12	CG16781	DRSC28112	8
13	Gr33a	DRSC02589	7
14	CG10019	DRSC24959	1
15	Mccc2	DRSC04987	3
16	CG17681	DRSC02632	2
17	CG4199	DRSC18519	5
18	CG4199	DRSC21314	17
19	CG4199	DRSC27951	6
20	CtIP	DRSC11785	6
21	CtIP	DRSC29281	4
22	vir-1	DRSC02501	6
23	vir-1	DRSC02863	3
24	vir-1	DRSC25208	5
25	sPLA2	DRSC06041	9
26	sPLA2	DRSC26194	5
27	CG18094	DRSC02655	12
28	CG33288	DRSC11484	13
29	TTLL1B	DRSC08594	7
30	CG15425	DRSC00440	4
31	CG15425	DRSC24897	5
32	Iyd	DRSC10614	2
33	Iyd	DRSC10615	2
34	IFT20 + CG10395	DRSC22660	11
35	IFT20 + CG10395	DRSC27079	5
36	Cpr11A	DRSC19861	12
37	Cpr11A	DRSC26786	10
38	Obp49a	DRSC22562	3
39	Obp49a	DRSC25703	2
40	toy	DRSC17222	15
41	toy	DRSC25870	4
42	CG14563	DRSC11724	9
43	Sol1	DRSC15263	6
44	Sol1	DRSC15271	5
45	Sol1	DRSC15681	14
46	CG6675	DRSC03735	8
47	CG9822	DRSC04568	8
48	CG13247	DRSC11695	3
49	CG7739	DRSC10910	7
50	CG18530	DRSC15341	5
51	Gbeta76C	DRSC11174	9
52	Cpr65Ec	DRSC11025	14
53	Cpr65Ec	DRSC24191	6
54	Fib	DRSC04614	4
55	Uxs	DRSC10941	4
56	Uxs	DRSC28512	13
57	CG10194	DRSC02025	4
58	Muc68D	DRSC10569	5
59	CG9213	DRSC20170	11
60	CG9213	DRSC24500	3
61	CG7512	DRSC10863	5
62	CG5199	DRSC11770	3
63	mkg-p + Tpt	DRSC10777	10
64	CG18635	DRSC06780	8
65	CG18635	DRSC25971	12
66	eg	DRSC11885	5
67	eg	DRSC26147	4
68	slbo	DRSC04716	14
69	slbo	DRSC27813	11
70	CG5916	DRSC15917	5
71	lncRNA:CR32658	DRSC19402	8
72	lncRNA:CR32658	DRSC26860	5
73	inaE	DRSC19376	19
74	inaE	DRSC19377	7
75	inaE	DRSC19379	20
76	inaE	DRSC26883	5

Quoted from the listing (11 entries):
no.	gene knocked down	DRSC id	mitotic cells, replicate 1
60	CG9213	DRSC24500	3
61	CG7512	DRSC10863	5
62	CG5199	DRSC11770	3
63	mkg-p + Tpt	DRSC10777	10
64	CG18635	DRSC06780	8
65	CG18635	DRSC25971	12
66	eg	DRSC11885	5
67	eg	DRSC26147	4
68	slbo	DRSC04716	14
69	slbo	DRSC27813	11
70	CG5916	DRSC15917	5
